Results taken from patent publication US20080085535.

Target: T1, TP901-1 integrase (Lactococcus phage TP901-1) (UniProt Q38184)
T1 sequence (looked up, limits assumed): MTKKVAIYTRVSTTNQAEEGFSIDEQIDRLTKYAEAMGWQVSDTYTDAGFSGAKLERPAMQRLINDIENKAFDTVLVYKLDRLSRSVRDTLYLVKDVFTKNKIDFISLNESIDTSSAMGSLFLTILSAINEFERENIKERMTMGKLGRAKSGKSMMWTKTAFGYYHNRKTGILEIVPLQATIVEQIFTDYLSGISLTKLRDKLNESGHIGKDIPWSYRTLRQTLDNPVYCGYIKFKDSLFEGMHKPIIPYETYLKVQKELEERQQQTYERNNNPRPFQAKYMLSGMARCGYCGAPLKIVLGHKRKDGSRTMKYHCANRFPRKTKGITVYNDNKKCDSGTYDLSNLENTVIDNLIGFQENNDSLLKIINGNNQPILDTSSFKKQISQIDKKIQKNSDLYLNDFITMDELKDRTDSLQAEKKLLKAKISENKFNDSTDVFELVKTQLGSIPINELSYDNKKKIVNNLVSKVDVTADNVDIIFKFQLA
Assay: activity in cells
Settings: protein in cells

ATCGATTGTTGTTTCATGATTCTCCTCCCCCAATGAGCTCCATAATACATAATTTTCAAACTGATAAAATGATTTTTCATAAATCCATTAGACGGTGCAAATATATGTTTTTAATGTTCTTCGTTTTTAGGCATCCCTCCTTTCAAGATAAATAATTTATACACTATTCTATTGGAATCTTAATCATTCCAATAGAAAAATATGTAATGATTATAAATAAGTCGCTTCTTATCATAAATATATTTACATATTCATTTAATACTACATCATGTTAGGTATAGTAAGGCTATCAAGGGTGTCTTAATTTCTACTTGTAACAATGTATTGGCATATTATATATTGAATTGAGAAAATTAAATACAGCGATAATTCACATGAACAAGTTCATTGGTAGTTATATTTTCAAATTTTCAAGGTTGTGCTTGTATGTCATTCTATAGTTAGATAAGCATTTGAGGTAGAGTCCGTCCGAATATATTTGTAATCTGAAGAAGGTTCAAACATATTTCTATATAACGTATTCTTTTTTTGTAGTTCTTACTTTTGAGGGGCGTTACAATTCAAAGATATTATCTTTAATTACCTTAATTGAAATAAACGAAATAAAAACTCGCAATTAAGCGAGTTGGACTCGAG (double strand)
activity on this sequence (attP point change did not interfere with recombination with attB, B. subtilis): active

CTGATAATTGCCAACACAATTAACATCTCAATCAAGGTAAATG (double strand) [attBmin]
activity on this sequence (B. subtilis AEB165, recombination with attP plasmid pAEB153, 33 C, no xylose, PCR check, text assigns integration in amyE to A, C, D, variant of attB161, only the site is given): active

GTGCCTGACTTTCAACTACTTTAACTACTGCTGCTTCACCAGTTTTTTGAACTTGTGCTTTTTCTTTTATCAAATTTGGCACAAAAAGCAAAATTAAAATACTGATAATTGCCAACACAATTAACATCTCAATCAAGGTAAATGCTTTTTGCTTTTTTTGC (double strand) [attB161]
activity on this sequence (B. subtilis AEB165, recombination with attP plasmid pAEB153, 33 C, no xylose, PCR check): active

Tags and fusion partners may be left off the protein sequences shown. The exact form of at least one protein or probe is not confirmed.
